# Most values lie at the floor of the assay. Slopes are relative: functional sequences can read slightly below zero.
# System: Saccharomyces cerevisiae PS128 hsf1 delta, HSF1(1-493) fusion
# Assay: growth estimate (transactivation domain function in HSF1 fusion, heat-shock survival) (a.u. (slope of normalised read count over time)); higher = stronger growth at 37°C, i.e. more transactivation activity
# Details: library: random library
# Protocol: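 Random 60-nt DNA library encoding peptides of up to 20 aa, fused to the C-terminus of yeast HSF1 residues 1-493 (C-terminal TAD deleted) and expressed from the native HSF1 promoter on a CEN plasmid in hsf1-deleted S. cerevisiae PS128. Cells were selected at 37°C on -trp 5-FOA plates for 0, 2, 4, 6 and 8 days and amplicons were sequenced. Growth estimate is the slope of a robust linear fit of total-sum-normalised read counts (normalised to the first time point) over time, using at least 2 replicates. Sequences are classed functional (TAD activity) above a threshold of -0.13, set from stop-codon control sequences.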
row,Substance,growth estimate
1,AAAKICPIPRLIPALGLRFH,< -0.25
2,AAARGIDYDQTMETARFNLF,2.25
3,AAARKTAPVVRKGRLSLCLL,< -0.25
4,AAATDSFMRKPKLTLQTTRL,< -0.25
5,AAC,< -0.25
6,AACGSSRAKTA,< -0.25
7,AADARLVVR,< -0.25
8,AAEQESSWKG,< -0.25
9,AAESRPPLCSEVDVGLTVRS,< -0.25
10,AAFK,< -0.25
11,AAFQ,< -0.25
12,AAGFARVSFVWLDIFGLAAG,< -0.25
13,AAGLSDCINKSFMS,< -0.25
14,AAGNDLSGRPGFGTACKKIC,< -0.25
15,AAGSLERVFAGYEVCV,< -0.25
16,AAIHEVAAVVS,< -0.25
17,AAKKPPM,< -0.25
18,AAKLTYRLNTRELVQPLSGP,< -0.25
19,AAKSCSANP,< -0.25
20,AALLSAQ,< -0.25
21,AALNKSHR,< -0.25
22,AALVQGQPGTVIGGMFGGFL,< -0.25
23,AANCRRRSQYQSQCRFYPVN,< -0.25
24,AAPIIGIQGAPIVDASSLNS,< -0.25

row,Substance,growth estimate
1,AAPYDCNSAMVDFPALLRSC,-0.237
2,AARAKCG,< -0.25
3,AARGAPWIAAQIGRVALICA,< -0.25
4,AARGTSNTRLLSGNTLKDGV,< -0.25
5,AARLPHSDSRLPVQSSGIGG,< -0.25
6,AASLVTTRERSCGAKRGKQG,< -0.25
7,AASMPQTWSQGLDNNIALVL,< -0.25
8,AASNLIDRRWSNDKRLLIRS,-0.243
9,AASPLIGPKVSHSTRAQLHV,< -0.25
10,AASVIGSFGSL,< -0.25
11,AAVCSVNL,< -0.25
12,AAVDGSTWGSLCRLTAFAIV,< -0.25
13,AAVDYVVGTGPSLNDPVTVK,< -0.25
14,AAVGDLGEYHGSSYAYADLP,< -0.25
15,AAVWPTP,< -0.25
16,AAYV,< -0.25
17,ACAVRCSPVLC,< -0.25
18,ACDQTLKCRVFEGVSAKRTL,< -0.25
19,ACFSLWTKAI,< -0.25
20,ACGCPRRALQARST,< -0.25
21,ACGRVSLRLIQDMVLGTGQ,< -0.25
22,ACIRRNGSGGVESGDTHDNP,< -0.25
23,ACIVLME,< -0.25
24,ACKKA,< -0.25

# Taken from the results shown for reference:
row,Substance,growth estimate
12,AAVDGSTWGSLCRLTAFAIV,< -0.25
13,AAVDYVVGTGPSLNDPVTVK,< -0.25
14,AAVGDLGEYHGSSYAYADLP,< -0.25
15,AAVWPTP,< -0.25
16,AAYV,< -0.25
17,ACAVRCSPVLC,< -0.25
18,ACDQTLKCRVFEGVSAKRTL,< -0.25

# (continued)

row,Substance,growth estimate
1,ACLELSPSSRMFPGPSWLER,< -0.25
2,ACPPPHFLHKHPDTNCDHGP,< -0.25
3,ACQPRLSQTWSRSTAQTTKS,< -0.25
4,ACQYAWMRTQTRESQETGHP,< -0.25
5,ACRRLKLSSTLGSLSVLEHQ,< -0.25
6,ACSPRYGEPPA,< -0.25
7,ACSVYQLQVFDLSPSCSSPF,-0.239
8,ACTKMECTME,< -0.25
9,ACVMG,< -0.25
10,ACVPRHDPRYSRTHLIRWST,< -0.25
11,ACVPVELLVAICNSALGARD,< -0.25
12,ADALDSSCPVDLGNICIWEP,-0.183
13,ADANHIGTWGEVNLMINIPR,< -0.25
14,ADAQYRKEKGAGL,< -0.25
15,ADARRGAASSSRKIKTDGTE,< -0.25
16,ADDGGTVKWLSSSVKFTKQD,< -0.25
17,ADELSYDRAHVPLT,< -0.25
18,ADEYRSRR,< -0.25
19,ADF,< -0.25
20,ADGDQRCVVGHPPWSYETSF,< -0.25
21,ADGTSECPPWAASLSPLNGI,< -0.25
22,ADIQENATLGRPLRDGSPPP,0.146
23,ADLDRCLARTNRWTSKVRLV,< -0.25
24,ADLSAHC,< -0.25

row,Substance,growth estimate
1,ADP,< -0.25
2,ADRGLLSICLSQKR,< -0.25
3,ADRIL,< -0.25
4,ADRPEHVLESVGIQLQCRRR,< -0.25
5,ADRRS,< -0.25
6,ADRSVNRLRVRVRSSSQARV,-0.207
7,ADRTPLGISDHHRTLLVGDG,< -0.25
8,ADSDRCRSESTRIPYGPPFR,< -0.25
9,ADSH,< -0.25
10,ADSTCALLRALVVWRHERMY,< -0.25
11,ADTGKG,< -0.25
12,ADTQSESPS,< -0.25
13,ADVARPHQPTR,< -0.25
14,ADVPSGLREKVGVAGLTSSW,< -0.25
15,ADVVRKRQGRLQDLFLREWT,< -0.25
16,AEAPILNLATVGV,< -0.25
17,AEDSAAM,-0.233
18,AEEPSVRHKRITSVNTTV,< -0.25
19,AEEYGMYLSAITRHVRQTWV,< -0.25
20,AEF,< -0.25
21,AEGSRDIGVLIVDCFNLSFV,< -0.25
22,AEHVGN,< -0.25
23,AEICDIIRYSSRRPPPGADL,< -0.25
24,AEIGTEPLST,< -0.25

row,Substance,growth estimate
1,AEIRSAGFVQN,< -0.25
2,AEKAKPLSLNAGPNPCQRSI,< -0.25
3,AEMLCGALDVDHPNMSCIDP,< -0.25
4,AEMSRIFDGGRGSIH,< -0.25
5,AEQWTAAVLAEMQESSVPLR,< -0.25
6,AERRPTKV,< -0.25
7,AERVHVFSRRTRLSG,< -0.25
8,AESAPAPVRREDYA,< -0.25
9,AESHGSDNTGMTAMFRGYTA,< -0.25
10,AETTGETEGPRL,< -0.25
11,AETV,< -0.25
12,AEV,< -0.25
13,AEVSIFGQVG,< -0.25
14,AEYFVRIGRSYEESVP,< -0.25
15,AFALLQRVRSSTHAS,< -0.25
16,AFDARNSLQRGGGGPGSLKI,-0.245
17,AFDKSHSSIGTPLRAHRRFM,< -0.25
18,AFFSYYYMGGENH,< -0.25
19,AFGEVVPYLAGYCCPPRCGR,< -0.25
20,AFGITFNRPHIPKTSSHLIV,< -0.25
21,AFGITRRCQSAISSASSKTS,< -0.25
22,AFI,< -0.25
23,AFIS,< -0.25
24,AFLGGDIGLSIGGACGFMYV,-0.206

row,Substance,growth estimate
1,AFQRVLHVERIRIKMHHAP,< -0.25
2,AFRALHQSTCEWRIDV,-0.2
3,AFRLRQTPLIRQSQSRCYVV,< -0.25
4,AFSPKTCQAGERRM,< -0.25
5,AFSRPSVRAALDPLRTIPI,< -0.25
6,AFTAWTRCGGGTVALLLSRR,< -0.25
7,AGDDKTCRGPRRPSVCMQSC,< -0.25
8,AGDPMLR,< -0.25
9,AGERRLGGN,< -0.25
10,AGEWQDAGLQCPVGEKDKSR,< -0.25
11,AGF,< -0.25
12,AGFLQESYCTRNAVPHECTW,< -0.25
13,AGFSCNVAVNSAVRSKGVYG,< -0.25
14,AGGGIPLQRLSSTRLDVVCV,< -0.25
15,AGGRCPAFLSDHSE,< -0.25
16,AGHLGKYASF,< -0.25
17,AGHTKGEPGYRGEPFVTDRA,< -0.25
18,AGIYVELVDPCMQAVNQFES,< -0.25
19,AGKDDTDRQPYLKYLTLLAL,< -0.25
20,AGKLPRFGSSPWCFYEQADT,< -0.25
21,AGLGTISDDRVHSDSDHLGL,< -0.25
22,AGLTSHDRAVAETWLLAQRV,< -0.25
23,AGMCLNTA,< -0.25
24,AGPGISENDMSLAMAFCLVS,-0.217

row,Substance,growth estimate
1,AGPKGVKPPDGPCEVRINLT,-0.231
2,AGQGHKCLWVKLH,< -0.25
3,AGQRAHW,< -0.25
4,AGRERD,< -0.25
5,AGRGCL,< -0.25
6,AGRQDHVVNHHRPAEVDPEA,< -0.25
7,AGSCSLSPLIE,< -0.25
8,AGSF,< -0.25
9,AGSGPYAKCTRAASRIRASL,< -0.25
10,AGTAGAVIRCYMRVALSSTT,-0.245
11,AGVVDRDVVT,< -0.25
12,AGW,< -0.25
13,AGWLTRSPDLSVALDWLGQL,< -0.25
14,AGWRRHCPRSGWVGMHGDTD,< -0.25
15,AGYALNGNRIGSPFSEAGVD,< -0.25
16,AGYFHVPAQRRSVVSPRRPR,< -0.25
17,AGYHGWLV,< -0.25
18,AHCEIQHSS,< -0.25
19,AHESVKGGENANSLRRHSFD,< -0.25
20,AHEVAVAFRYSGRLPG,< -0.25
21,AHFAPTPGQNQSGSAEDGVC,< -0.25
22,AHGGA,< -0.25
23,AHGSCKCIP,< -0.25
24,AHLPRD,< -0.25

row,Substance,growth estimate
1,AHPRTNSSGVCRTSMLCDRG,< -0.25
2,AHRGP,< -0.25
3,AHRYQPRSRPLSRSRLQ,< -0.25
4,AHSWLRVGKLVSVRLRSPLV,-0.214
5,AHTNGQRWTNHSLHEQRHKF,< -0.25
6,AHTPVSIYWQSKTVSSYCR,< -0.25
7,AHVLFSAC,< -0.25
8,AIAASLHC,< -0.25
9,AIAES,< -0.25
10,AIAPEGPADQRARI,< -0.25
11,AICLGP,< -0.25
12,AICP,< -0.25
13,AIECEN,< -0.25
14,AIFRL,< -0.25
15,AIGDPTPLGLPTSG,< -0.25
16,AIGQQIHNWKIVEGFSLPGL,< -0.25
17,AIGRLAPP,< -0.25
18,AIIVFINRNYRSSRFADTTP,< -0.25
19,AIKAMSGAWWSLPYCSLPKR,< -0.25
20,AIKIDTRKTKCWVVSAL,-0.248
21,AIKVLFRSPGVGRYFYTELE,< -0.25
22,AIL,-0.0345
23,AILSLSVRGSGVRTPNEP,-0.243
24,AINC,< -0.25

# Source: the supplement of paper PMC5949888
